Results taken from the supplement of paper PMC10849652.
This is one part of the list.

Protein sequences, listed by entry. Tags and fused reporters are not part of them. Lines headed by an entry give the natural chain unless they say otherwise; changes in a name come on top.
UniProt Q5F1R6: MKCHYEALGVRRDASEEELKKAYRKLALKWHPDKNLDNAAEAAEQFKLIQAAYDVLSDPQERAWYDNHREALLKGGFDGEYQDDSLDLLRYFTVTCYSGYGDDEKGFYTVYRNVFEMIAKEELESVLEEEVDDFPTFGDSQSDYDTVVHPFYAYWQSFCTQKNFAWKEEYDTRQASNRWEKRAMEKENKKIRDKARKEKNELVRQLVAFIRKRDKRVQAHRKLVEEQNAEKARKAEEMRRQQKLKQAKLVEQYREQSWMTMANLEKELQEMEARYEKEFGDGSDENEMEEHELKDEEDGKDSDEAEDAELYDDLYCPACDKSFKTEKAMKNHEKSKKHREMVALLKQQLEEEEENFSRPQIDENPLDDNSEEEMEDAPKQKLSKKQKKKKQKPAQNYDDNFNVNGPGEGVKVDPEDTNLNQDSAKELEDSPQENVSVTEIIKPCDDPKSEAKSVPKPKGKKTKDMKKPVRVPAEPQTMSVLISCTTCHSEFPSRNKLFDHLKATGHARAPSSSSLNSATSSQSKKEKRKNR
UniProt P63172, whole entry, looked up: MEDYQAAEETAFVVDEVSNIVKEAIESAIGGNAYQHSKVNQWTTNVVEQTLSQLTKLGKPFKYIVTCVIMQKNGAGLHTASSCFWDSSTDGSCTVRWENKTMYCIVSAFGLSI
UniProt Q8IXB1: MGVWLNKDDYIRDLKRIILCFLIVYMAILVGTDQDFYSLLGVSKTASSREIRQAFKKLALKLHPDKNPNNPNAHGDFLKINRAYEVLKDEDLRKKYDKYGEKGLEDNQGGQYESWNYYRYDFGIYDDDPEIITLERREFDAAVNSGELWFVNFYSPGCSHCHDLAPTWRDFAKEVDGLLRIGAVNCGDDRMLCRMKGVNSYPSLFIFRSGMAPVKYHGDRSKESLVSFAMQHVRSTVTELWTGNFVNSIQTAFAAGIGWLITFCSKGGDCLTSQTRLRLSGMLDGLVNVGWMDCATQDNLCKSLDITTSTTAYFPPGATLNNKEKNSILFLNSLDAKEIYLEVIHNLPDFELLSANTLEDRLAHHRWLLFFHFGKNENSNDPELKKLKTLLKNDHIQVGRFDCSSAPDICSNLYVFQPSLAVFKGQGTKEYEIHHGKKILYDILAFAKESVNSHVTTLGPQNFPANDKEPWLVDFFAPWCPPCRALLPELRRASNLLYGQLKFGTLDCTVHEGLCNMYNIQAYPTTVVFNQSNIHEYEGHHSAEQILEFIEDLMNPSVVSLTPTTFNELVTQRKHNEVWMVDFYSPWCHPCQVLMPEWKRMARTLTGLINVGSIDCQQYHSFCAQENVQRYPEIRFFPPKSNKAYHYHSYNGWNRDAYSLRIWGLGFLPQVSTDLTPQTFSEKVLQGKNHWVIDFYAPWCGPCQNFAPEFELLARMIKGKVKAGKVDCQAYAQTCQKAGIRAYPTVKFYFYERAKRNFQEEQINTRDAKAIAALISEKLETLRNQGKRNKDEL
UniProt Q7Z388: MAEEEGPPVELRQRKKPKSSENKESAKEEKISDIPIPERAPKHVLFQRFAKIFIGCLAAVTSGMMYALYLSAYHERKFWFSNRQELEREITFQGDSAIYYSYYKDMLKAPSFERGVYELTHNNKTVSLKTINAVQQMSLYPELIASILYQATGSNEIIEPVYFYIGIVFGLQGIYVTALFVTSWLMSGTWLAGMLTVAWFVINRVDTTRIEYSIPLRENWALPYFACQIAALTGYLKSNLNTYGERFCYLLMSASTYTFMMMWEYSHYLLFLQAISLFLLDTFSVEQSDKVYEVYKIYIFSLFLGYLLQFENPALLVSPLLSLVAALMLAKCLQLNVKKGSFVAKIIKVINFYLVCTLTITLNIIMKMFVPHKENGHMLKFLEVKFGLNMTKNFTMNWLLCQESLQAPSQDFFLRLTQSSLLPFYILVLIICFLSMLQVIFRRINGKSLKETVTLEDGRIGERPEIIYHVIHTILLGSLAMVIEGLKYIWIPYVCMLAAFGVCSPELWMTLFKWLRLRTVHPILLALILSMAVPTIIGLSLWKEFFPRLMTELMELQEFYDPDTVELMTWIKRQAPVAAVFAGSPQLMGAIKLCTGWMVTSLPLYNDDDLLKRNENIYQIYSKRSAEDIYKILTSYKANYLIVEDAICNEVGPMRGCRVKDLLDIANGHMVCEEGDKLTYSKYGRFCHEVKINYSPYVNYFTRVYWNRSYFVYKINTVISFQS
UniProt Q9Y2G8: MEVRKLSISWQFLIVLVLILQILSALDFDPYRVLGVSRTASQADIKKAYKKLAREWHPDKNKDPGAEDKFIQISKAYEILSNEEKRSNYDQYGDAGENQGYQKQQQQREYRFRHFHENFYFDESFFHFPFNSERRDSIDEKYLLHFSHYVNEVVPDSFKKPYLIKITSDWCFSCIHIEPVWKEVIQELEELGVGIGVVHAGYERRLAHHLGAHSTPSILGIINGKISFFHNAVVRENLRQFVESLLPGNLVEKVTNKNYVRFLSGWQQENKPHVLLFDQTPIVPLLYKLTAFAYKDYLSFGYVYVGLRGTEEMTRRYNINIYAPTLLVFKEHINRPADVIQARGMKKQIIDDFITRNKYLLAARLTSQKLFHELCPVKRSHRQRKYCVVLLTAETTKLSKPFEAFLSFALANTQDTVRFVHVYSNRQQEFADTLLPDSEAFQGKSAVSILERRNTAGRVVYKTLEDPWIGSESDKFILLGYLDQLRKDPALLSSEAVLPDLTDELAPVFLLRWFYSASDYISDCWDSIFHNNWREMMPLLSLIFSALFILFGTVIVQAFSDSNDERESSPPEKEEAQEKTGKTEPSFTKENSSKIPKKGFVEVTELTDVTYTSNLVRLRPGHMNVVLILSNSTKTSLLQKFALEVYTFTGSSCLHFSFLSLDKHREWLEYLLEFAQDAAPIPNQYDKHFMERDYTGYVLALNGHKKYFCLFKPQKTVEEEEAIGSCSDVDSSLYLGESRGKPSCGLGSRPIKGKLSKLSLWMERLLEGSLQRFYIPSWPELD
UniProt Q9NVH1: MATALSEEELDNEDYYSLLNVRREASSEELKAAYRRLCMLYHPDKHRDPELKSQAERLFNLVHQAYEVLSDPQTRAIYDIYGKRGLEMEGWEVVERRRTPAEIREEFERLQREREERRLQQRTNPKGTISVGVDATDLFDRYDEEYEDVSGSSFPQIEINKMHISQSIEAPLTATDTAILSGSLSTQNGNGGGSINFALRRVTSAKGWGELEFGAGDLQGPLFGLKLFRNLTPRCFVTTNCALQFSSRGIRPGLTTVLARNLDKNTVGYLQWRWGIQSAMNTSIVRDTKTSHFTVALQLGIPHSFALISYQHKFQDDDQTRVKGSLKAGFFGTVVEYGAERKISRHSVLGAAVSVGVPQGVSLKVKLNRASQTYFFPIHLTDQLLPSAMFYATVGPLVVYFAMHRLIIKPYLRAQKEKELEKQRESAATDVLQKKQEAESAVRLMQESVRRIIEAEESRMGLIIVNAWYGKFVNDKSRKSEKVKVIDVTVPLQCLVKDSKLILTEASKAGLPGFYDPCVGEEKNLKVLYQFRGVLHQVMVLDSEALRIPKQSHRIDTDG
UniProt P51452: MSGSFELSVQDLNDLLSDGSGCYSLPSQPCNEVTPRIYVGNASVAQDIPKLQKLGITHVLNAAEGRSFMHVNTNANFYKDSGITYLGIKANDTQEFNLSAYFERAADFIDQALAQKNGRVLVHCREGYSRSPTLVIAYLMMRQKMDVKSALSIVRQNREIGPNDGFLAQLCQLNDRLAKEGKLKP
UniProt Q92611: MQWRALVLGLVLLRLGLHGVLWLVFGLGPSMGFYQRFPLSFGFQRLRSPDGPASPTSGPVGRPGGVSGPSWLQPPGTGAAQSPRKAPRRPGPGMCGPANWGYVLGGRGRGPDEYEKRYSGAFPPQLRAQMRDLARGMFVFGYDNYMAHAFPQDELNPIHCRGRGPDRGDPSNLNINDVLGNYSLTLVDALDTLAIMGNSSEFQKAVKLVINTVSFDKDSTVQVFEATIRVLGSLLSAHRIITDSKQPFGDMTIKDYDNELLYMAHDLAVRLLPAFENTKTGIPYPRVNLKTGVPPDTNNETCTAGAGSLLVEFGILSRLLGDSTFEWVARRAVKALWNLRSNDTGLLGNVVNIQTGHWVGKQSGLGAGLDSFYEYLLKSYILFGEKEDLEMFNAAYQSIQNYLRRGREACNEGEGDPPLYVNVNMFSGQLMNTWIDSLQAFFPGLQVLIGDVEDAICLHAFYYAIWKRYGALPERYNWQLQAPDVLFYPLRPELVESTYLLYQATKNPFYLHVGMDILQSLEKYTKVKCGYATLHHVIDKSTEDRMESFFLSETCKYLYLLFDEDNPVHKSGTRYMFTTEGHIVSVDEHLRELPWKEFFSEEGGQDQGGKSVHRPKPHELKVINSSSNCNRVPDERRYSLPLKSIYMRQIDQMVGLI
UniProt Q9UBS4: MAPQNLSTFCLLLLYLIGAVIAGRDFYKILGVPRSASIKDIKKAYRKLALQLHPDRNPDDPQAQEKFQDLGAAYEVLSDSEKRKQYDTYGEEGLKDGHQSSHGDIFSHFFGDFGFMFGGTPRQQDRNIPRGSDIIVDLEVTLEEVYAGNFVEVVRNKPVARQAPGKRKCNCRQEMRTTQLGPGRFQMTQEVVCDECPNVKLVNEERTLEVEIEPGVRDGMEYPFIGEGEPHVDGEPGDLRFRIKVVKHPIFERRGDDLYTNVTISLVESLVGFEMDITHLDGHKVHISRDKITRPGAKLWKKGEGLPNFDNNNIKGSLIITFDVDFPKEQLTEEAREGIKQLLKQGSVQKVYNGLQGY
UniProt Q6UX65: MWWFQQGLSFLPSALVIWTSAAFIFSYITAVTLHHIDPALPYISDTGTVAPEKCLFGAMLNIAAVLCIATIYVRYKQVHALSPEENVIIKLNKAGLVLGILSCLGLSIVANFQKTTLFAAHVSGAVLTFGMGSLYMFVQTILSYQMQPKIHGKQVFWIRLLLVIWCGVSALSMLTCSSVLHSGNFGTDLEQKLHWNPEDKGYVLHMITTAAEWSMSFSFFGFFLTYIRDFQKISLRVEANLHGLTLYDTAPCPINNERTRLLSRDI
UniProt Q15125: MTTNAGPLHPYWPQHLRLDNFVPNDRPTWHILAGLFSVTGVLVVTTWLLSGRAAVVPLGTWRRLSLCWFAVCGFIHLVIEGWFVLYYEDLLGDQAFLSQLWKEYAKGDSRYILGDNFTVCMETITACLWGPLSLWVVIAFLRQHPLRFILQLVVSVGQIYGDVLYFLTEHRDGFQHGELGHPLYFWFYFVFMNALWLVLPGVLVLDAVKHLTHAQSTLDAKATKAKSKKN
UniProt O75190: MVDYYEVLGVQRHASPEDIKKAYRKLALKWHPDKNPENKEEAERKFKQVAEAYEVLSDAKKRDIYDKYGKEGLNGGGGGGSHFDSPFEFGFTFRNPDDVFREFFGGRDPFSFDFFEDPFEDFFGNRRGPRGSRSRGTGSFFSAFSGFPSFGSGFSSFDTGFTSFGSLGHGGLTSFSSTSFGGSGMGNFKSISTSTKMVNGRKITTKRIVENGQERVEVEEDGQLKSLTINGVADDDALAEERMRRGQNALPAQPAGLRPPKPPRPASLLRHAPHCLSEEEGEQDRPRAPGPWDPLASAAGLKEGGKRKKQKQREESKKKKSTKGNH
UniProt O43598: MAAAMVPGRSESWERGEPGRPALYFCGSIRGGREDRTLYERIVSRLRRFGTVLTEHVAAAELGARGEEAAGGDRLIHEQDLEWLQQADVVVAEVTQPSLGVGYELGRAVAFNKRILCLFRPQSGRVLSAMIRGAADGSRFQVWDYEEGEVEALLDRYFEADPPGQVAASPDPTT
UniProt O00716: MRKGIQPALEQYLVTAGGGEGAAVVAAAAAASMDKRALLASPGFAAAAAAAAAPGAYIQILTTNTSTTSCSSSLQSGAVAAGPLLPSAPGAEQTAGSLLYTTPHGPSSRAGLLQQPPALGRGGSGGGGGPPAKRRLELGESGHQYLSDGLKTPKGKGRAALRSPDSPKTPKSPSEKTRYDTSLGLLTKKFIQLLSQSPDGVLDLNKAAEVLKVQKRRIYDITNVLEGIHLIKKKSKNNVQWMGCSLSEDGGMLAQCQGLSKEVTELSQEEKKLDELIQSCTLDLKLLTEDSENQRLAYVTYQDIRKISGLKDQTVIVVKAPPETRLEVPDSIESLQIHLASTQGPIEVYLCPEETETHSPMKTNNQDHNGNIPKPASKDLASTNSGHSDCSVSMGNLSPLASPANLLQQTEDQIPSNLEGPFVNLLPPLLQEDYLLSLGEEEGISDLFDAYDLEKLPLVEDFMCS
UniProt Q9BZG8: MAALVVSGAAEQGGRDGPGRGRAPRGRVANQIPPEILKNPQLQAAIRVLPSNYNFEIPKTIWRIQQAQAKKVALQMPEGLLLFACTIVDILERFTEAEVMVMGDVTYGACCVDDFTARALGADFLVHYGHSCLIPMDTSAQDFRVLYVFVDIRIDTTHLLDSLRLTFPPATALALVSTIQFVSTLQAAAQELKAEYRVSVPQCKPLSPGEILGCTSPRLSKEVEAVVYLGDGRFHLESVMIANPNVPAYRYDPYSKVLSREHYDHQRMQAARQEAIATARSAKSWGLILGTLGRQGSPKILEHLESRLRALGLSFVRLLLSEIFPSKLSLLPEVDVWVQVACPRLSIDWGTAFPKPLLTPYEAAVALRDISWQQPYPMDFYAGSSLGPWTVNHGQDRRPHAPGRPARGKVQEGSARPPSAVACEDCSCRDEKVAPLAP

compound: c1cn2cc(-c3ccc4cn[nH]c4c3)nc(Nc3ccc(N4CCOCC4)cc3)c2n1 [entospletinib]; assay: log2 fold change, soluble protein after heating vs DMSO (PISA); higher = thermal stabilisation; K562 cells, 10 uM, 30 min; active = over 0.2 and 3.5 SD of the protein, either way, in both replicates (recomputed)
Method in brief: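 For each measurement, 10 μM compound was applied for 30 min to K562 cells at 2×10^6 cells/mL. Aliquots were heated for 3 min across 48°C-58°C, pooled, and extracted in PBS with 0.5% NP-40 at 4°C; the supernatant after 21,000xg for 90 min was soluble protein. This was quantified by TMTpro 16plex LC-MS/MS with channel sums equalised, and thermal stability was reported relative to control samples from duplicates, on a log2 fold-change scale.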

log2 fold change, inactive:
ECHS1 (UniProt P30084) -0.045
DNAJC21 isoform 3 (UniProt Q5F1R6) -0.012
DNAJB2 (UniProt P25686) -0.036
DYNLL1 (UniProt P63167) 0.105
DYNLT1 (UniProt P63172) -0.021
DNAJC10 (UniProt Q8IXB1) 0.024
DPY19L4 (UniProt Q7Z388) 0.036
DNAJC2 (UniProt Q99543) -0.063
DYNLT3 (UniProt P51808) 0.045
DNAJC16 (UniProt Q9Y2G8) -0.062
DNAJC11 (UniProt Q9NVH1) -0.011
DUSP3 (UniProt P51452) 0.055
DPY19L2 (UniProt Q6NUT2) 0.075
DPH2 (UniProt Q9BQC3) -0.082
DNPEP (UniProt Q9ULA0) -0.025
EDF1 (UniProt O60869) -0.016
EDEM1 (UniProt Q92611) -0.033
DST (UniProt Q03001) 0.041
DPP7 (UniProt Q9UHL4) 0.021
DYNC1LI1 (UniProt Q9Y6G9) 0.041
DNAJB11 (UniProt Q9UBS4) 0.029
DRAM2 (UniProt Q6UX65) -0.056
EBP (UniProt Q15125) 0.004
EDEM3 (UniProt Q9BZQ6) 0.067
DNAJB6 (UniProt O75190) 0.026
DNPH1 (UniProt O43598) 0.026
E2F3 (UniProt O00716) 0.018
DYNC1H1 (UniProt Q14204) -0.003
DOCK10 (UniProt Q96BY6) -0.066
DPH1 (UniProt Q9BZG8) -0.075
DRAP1 isoform 2 (UniProt Q14919) 0.014
DONSON (UniProt Q9NYP3) 0.129
DTL (UniProt Q9NZJ0) -0.134
DUT (UniProt P33316) 0.027

A portion from the list above, for reference:
log2 fold change, inactive:
EDF1 (UniProt O60869) -0.016
EDEM1 (UniProt Q92611) -0.033
